PubChem BioAssay AID1259254 – NCATS – 2017

Purpose: 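Finding genes that stop cells copying their DNA twice in one cycle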 (primary screen)
Cell system: human HCT116 colorectal cancer cells
Knock-down reagent: single siRNA against human genes
Time to read-out: 3 days
Measured: 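Nuclei stained with Hoechst and imaged; cell-cycle phase assigned by DNA content; G2 share scaled per plate, non-targeting siRNA 0%, GMNN siRNA 100%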
Reading the numbers: G2 robust z-score: higher = more G2 cells, more excess DNA replication
Rule for the call: 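An siRNA counts as active if its G2 robust z-score lies at least 5 MADs above the screen median; here such calls match roughly 38% of GMNN control or more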
This is an unselected part of about 59,000 reagents tested. About 1,550 of them (2.6%) were called active. 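G2 share is only a proxy for re-replication; each gene was hit by three separate siRNAs, and active genes were retested.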 A number with no mark means an inactive call. The numbers tell different reagents against one gene apart. Not all columns of the deposit are shown. Not given: the amount of reagent.

G2 robust z-score, by gene and reagent
FRMD1: #1 0.569; #2 1.05; #3 0.59
HMGB3P19: #1 -0.78; #2 -1.12; #3 -0.705
NRAD1: #1 0.443; #2 0.409; #3 -0.617
H2AP: #1 0.662; #2 -0.422; #3 -0.257
ELL: #1 1.24; #2 -1.7; #3 -0.573
LOC400940: #1 -0.0153; #2 1.31; #3 0.0578
ASAH2: #1 -0.695; #2 -1.11; #3 -0.405
TMC3: #1 -0.175; #2 0.346; #3 -0.426
SLC25A28: #1 2.59; #2 1.1; #3 4.08
SLC25A16: #1 0.309; #2 -0.12; #3 4.41
DPY19L3: #1 -0.0892; #2 -0.499; #3 -0.0151; #4 0.177; #5 -0.295; #6 -0.876
TULP4: #1 -0.891; #2 0.0461; #3 -0.108
LSR: #1 -1.13; #2 -0.422; #3 -0.0462
SAMD9: #1 -0.335; #2 1.28; #3 0.829
IFITM3: #1 1.12; #2 0.549; #3 0.403

8 successive reagents from above, for reference:
G2 robust z-score, by gene and reagent
TMC3: #3 -0.426
SLC25A28: #1 2.59; #2 1.1; #3 4.08
SLC25A16: #1 0.309; #2 -0.12; #3 4.41
DPY19L3: #1 -0.0892
